From PMC9988876
No constants are given. Whether binding was seen depends on the method and setting. Binding seen in cells or lysates may run through a third protein. A yes stands for co-enrichment or nearness to the bait. Other partners may have been found.

By UniProt entry, the sequences of proteins in these tests, tags left out.
UniProt O14744: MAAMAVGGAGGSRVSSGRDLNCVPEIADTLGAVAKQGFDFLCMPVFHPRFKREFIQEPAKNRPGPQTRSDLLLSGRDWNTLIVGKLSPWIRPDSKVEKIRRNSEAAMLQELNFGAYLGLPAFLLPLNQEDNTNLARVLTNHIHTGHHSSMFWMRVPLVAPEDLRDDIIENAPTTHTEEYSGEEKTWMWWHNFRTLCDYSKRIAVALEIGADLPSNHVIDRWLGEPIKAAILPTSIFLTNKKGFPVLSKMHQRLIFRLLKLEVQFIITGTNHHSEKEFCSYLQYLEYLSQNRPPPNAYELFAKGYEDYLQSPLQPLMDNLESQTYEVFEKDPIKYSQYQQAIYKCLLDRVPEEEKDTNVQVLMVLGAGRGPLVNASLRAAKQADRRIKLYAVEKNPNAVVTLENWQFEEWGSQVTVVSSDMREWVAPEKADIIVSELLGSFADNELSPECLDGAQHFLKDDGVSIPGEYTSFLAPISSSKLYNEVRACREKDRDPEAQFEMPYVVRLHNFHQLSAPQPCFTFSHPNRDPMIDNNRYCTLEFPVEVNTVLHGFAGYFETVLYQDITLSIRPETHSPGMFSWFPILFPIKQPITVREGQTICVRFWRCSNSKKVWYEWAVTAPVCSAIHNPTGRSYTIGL

Target: Protein arginine methyltransferase 5 (PRMT5), expressed from a transfected PRMT5 plasmid (UniProt O14744)
Assay: affinity purification with mass spectrometry; PRMT5 plasmid transfected into HEK293 and Tu686 cells, 48 h; lysates precipitated with anti-PRMT5 beads; silver staining and mass spectrometry

binding: binds
B1: GTPase-activating protein-binding protein 2 (G3BP2), endogenous (protein, UniProt Q9UN86 1-482)
chain: MVMEKPSPLLVGREFVRQYYTLLNKAPEYLHRFYGRNSSYVHGGVDASGKPQEAVYGQNDIHHKVLSLNFSECHTKIRHVDAHATLSDGVVVQVMGLLSNSGQPERKFMQTFVLAPEGSVPNKFYVHNDMFRYEDEVFGDSEPELDEESEDEVEEEQEERQPSPEPVQENANSGYYEAHPVTNGIEEPLEESSHEPEPEPESETKTEELKPQVEEKNLEELEEKSTTPPPAEPVSLPQEPPKAFSWASVTSKNLPPSGTVSSSGIPPHVKAPVSQPRVEAKPEVQSQPPRVREQRPRERPGFPPRGPRPGRGDMEQNDSDNRRIIRYPDSHQLFVGNLPHDIDENELKEFFMSFGNVVELRINTKGVGGKLPNFGFVVFDDSEPVQRILIAKPIMFRGEVRLNVEEKKTRAARERETRGGGDDRRDIRRNDRGPGGPRGIVGGGMMRDRDGRGPPPRGGMAQKLGSGRGTGQMEGRFTGQRR
